Assay results from article doi:10.1101/2023.05.22.23289895.
No constants are given. Whether binding was seen depends on the method and setting. Binding seen in cells or lysates may run through a third protein. Some results given as binding are weak or reduced against the parent protein; the word gives no strength. For some assays here: Sequences can lack the tags named with a protein.

By UniProt entry, the sequences of proteins in these tests, tags left out.
UniProt Q12824: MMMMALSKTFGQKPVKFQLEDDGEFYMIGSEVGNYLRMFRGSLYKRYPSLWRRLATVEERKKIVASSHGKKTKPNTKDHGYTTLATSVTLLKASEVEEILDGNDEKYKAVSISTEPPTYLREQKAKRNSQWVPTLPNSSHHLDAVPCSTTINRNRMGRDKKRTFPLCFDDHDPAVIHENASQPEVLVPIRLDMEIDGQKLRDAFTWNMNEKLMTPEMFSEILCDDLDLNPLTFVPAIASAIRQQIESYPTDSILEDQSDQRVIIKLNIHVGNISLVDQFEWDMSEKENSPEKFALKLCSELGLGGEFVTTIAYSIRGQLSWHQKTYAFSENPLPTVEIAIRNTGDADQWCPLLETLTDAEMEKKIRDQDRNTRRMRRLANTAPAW

Assays:
3xHA-tagged SMARCB1 = 3xHA-tagged SMARCB1 (UniProt Q12824); assay: co-IP
3xHA-tagged CPSF2 = molecular target: T1, 3xHA-tagged CPSF2 (UniProt Q9P2I0); assay: co-IP
T1 sequence: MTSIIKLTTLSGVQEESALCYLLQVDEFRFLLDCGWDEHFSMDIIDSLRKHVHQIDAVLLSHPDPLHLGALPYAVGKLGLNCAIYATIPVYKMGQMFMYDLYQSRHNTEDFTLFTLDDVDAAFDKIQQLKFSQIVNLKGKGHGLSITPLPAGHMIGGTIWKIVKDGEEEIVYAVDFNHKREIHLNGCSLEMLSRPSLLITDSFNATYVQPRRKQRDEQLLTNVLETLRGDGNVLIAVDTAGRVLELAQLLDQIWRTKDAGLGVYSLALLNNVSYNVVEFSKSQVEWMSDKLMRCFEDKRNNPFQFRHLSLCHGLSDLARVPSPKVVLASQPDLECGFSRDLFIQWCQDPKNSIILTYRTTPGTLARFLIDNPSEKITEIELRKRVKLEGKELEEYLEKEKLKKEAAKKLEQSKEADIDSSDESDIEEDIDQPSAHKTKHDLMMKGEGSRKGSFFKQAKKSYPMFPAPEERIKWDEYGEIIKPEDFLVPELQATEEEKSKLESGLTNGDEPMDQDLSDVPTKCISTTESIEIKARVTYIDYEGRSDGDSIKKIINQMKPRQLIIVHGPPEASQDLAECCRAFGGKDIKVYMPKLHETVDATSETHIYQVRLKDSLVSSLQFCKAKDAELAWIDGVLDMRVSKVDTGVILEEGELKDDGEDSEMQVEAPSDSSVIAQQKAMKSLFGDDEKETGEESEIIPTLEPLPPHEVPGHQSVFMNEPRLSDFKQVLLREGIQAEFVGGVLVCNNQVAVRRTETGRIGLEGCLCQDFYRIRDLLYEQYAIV

With “FLAG-tagged ZFHX3 (from UniProt Q15911-1 1-3703)” the binding (3xHA-tagged SMARCB1) was “binds” and the binding (3xHA-tagged CPSF2) was “binds”.
